Test results taken from PubChem BioAssay AID445 (National Center for Advancing Translational Sciences (NCATS), 2006).
This is one part of the list. The main result of the screen is listed elsewhere. These columns were measured beside it and carry no call. Most of these compounds were active or inconclusive in the main read-out, so they are no random draw. Potencies come from curve fits of mixed quality, noted in brackets.

Assay: IkB Signaling
Conditions: ABC-DLBCL IkBa-CBG/CBR dual luciferase ratio (green luciferase fused to IkBa over red control in OCI-Ly3 lymphoma cells), 4 h
Procedure, shortened: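 In this assay, an IκBα–CBG68 fusion accumulates when IKK-driven degradation is blocked; native CBR normalizes for cell number. OCI-Ly3 cells were treated 4 h with compound and doxycycline, then green and red light read after Chroma-Glo addition.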

[1] = measured here: control luc red channel unless noted
[2] = measured here: IkB-luc green channel
[3] = measured here: control luc red channel

Q: With `Cc1ccc(NC(=O)CSc2nccn2Cc2ccc3c(c2)OCO3)c(C)c1` as the compound, how does the AC50 [1] read?
A: 0.631 µM [rising, full curve, poor fit]

Q: With `CCC1=C(c2ccc(C)cc2)S(=O)(=O)N=C1N1CCC(C(=O)NCc2ccc(C)cc2)CC1` as the compound, how does the AC50 [1] read?
A: 25.1 µM [falling, single point]

Q: Which AC50 [1] does the source give for `CCCSCCCNC(=O)CN1C(=O)CCn2nc(-c3cn(C)c4ccccc34)cc21` here?
A: 2 µM [falling, partial curve]

Q: Which AC50 [1] does the source give for `COc1cc(NS(=O)(=O)c2ccc(NC(=O)c3ccc(OC)c(Br)c3)cc2)nc(OC)n1` here?
A: 31.6 µM [falling, single point]

Q: Which AC50 [1] does the source give for `Cn1c(=O)c2c(n3c4ccccc4nc13)NC(=O)CC2c1cccc(Cl)c1` (centres undefined) here?
A: 0.251 µM [falling, full curve]

Q: Which AC50 [1] does the source give for `Cc1ccc(C)c(N2CCN(C(=O)C3CCCN(S(=O)(=O)c4cccc5nonc45)C3)CC2)c1` (centres undefined) here?
A: 10 µM [falling, partial curve]

Q: With `CCc1ccc(O)c(N=Cc2cccc(C)c2O)c1` as the compound, how does the AC50 [1] read?
A: 12.6 µM [falling, partial curve]

Q: With `CC(C)(C)NS(=O)(=O)c1ccc2nc(NC(=O)Cc3cccs3)sc2c1` as the compound, how does the AC50 [1] read?
A: 15.8 µM [falling, partial curve]

Q: Which AC50 [1] does the source give for `C1=Nc2c(Nc3ccccc3)ncnc2Oc2ccccc21` here?
A: 39.8 µM [falling, single point]

Q: For `CCOc1ccc2nc(NC(=O)c3ccoc3C)sc2c1`, which AC50 [1] is on record?
A: 5.01 µM [falling, partial curve]

Q: With `CC(=O)Nc1cccc(NC(=O)Cc2csc(COc3cccc(C)c3)n2)c1` as the compound, how does the AC50 [1] read?
A: 10 µM [falling, partial curve]

Q: With `COc1ccccc1N1CCN(S(=O)(=O)c2ccc(-n3cnnn3)cc2)CC1` as the compound, how does the AC50 [1] read?
A: 12.6 µM [falling, partial curve]

Q: For `CCOC(=O)N1CCc2c(sc3c2c(=O)n(-c2ccc(CC)cc2)c(=O)n3Cc2cccc(OC)c2)C1`, which AC50 [1] is on record?
A: 10 µM [falling, partial curve]

Q: With `CCOc1ccc(C(=O)Nc2ccc3c(c2)N(C(C)=O)CCC3)cc1OCC` as the compound, how does the AC50 [1] read?
A: 39.8 µM [falling, partial curve]

Q: With `Cc1ccc(-n2nc3c(N4CCC(C(=O)N(C)Cc5ccccc5)CC4)nnc(C)c3c2C)cc1` as the compound, how does the AC50 [1] read?
A: 12.6 µM [falling, single point]

Q: Which AC50 [1] does the source give for `Cn1cnnc1Sc1nc2ccccc2nc1NS(=O)(=O)c1ccccc1` here?
A: 3.16 µM [falling, partial curve]

Q: For `CC(=O)N1c2ccc(S(=O)(=O)NCC3CCC(C(=O)Nc4cc(C)cc(C)c4)CC3)cc2CC1C` (centres undefined), which AC50 [1] is on record?
A: 10 µM [falling, partial curve]

Q: For `CC(=O)Nc1ccc(S(=O)(=O)Nc2nc3n(n2)C(c2ccccc2)C=C(c2ccc(Cl)cc2)N3)cc1` (centres undefined), which AC50 [1] is on record?
A: 20 µM [falling, single point]

Q: With `O=C(NCCN1CCCCC1)c1ccc(Cn2c(SCc3ccc(F)cc3)nc3cccnc32)cc1` as the compound, how does the AC50 [1] read?
A: 20 µM [falling, partial curve]

Q: Which AC50 [1] does the source give for `CN(C)c1ccc(CN(Cc2ccco2)C(=O)c2ccc(F)cc2)cc1` here?
A: 25.1 µM [falling, partial curve]

Q: For `COc1ccccc1CNC(=O)CCC(=O)N1Cc2ccccc2Oc2ncccc21`, which AC50 [1] is on record?
A: 3.98 µM [rising, single point]

Q: For `COc1ccc(-c2nc3sc(CCNS(=O)(=O)c4c(C)cc(C)cc4C)c(C)n3n2)cc1`, which AC50 [1] is on record?
A: 25.1 µM [falling, partial curve]

Q: For `Cc1c(C(=O)OCC2CCCO2)[nH]c2c1C(=O)CC(c1ccc(N(C)C)cc1)C2` (centres undefined), which AC50 [1] is on record?
A: 39.8 µM [rising, single point] [measured here: IkB-luc green channel]

Q: For `Cc1cc(SCC(=O)Nc2nsc(-c3ccc(C(C)(C)C)cc3)n2)nc2ccccc12`, which AC50 [1] is on record?
A: 3.98 µM [falling, full curve]

Q: With `COc1cccc(N2CCN(C(=O)c3c4c(nc5ccccc35)C(=O)N(C3CCCCC3)C4)CC2)c1` as the compound, how does the AC50 [1] read?
A: 10 µM [falling, partial curve]

Q: With `CN(C)CCSc1nnc(-c2ccccc2)o1` as the compound, how does the AC50 [1] read?
A: 10 µM [falling, partial curve]

Q: For `CCOC(=O)Cn1c(=O)oc2cc(S(=O)(=O)N3CCCC(C)C3)ccc21` (centres undefined), which AC50 [1] is on record?
A: 39.8 µM [falling, single point]

Q: With `Cc1ccc(C(=O)CSc2nnc(COc3cccc(C)c3)o2)cc1` as the compound, how does the AC50 [1] read?
A: 15.8 µM [falling, partial curve]

Q: With `O=C(NCc1ccc(Cl)cc1)c1ccc2oc(=O)n(Cc3ccccc3)c2c1` as the compound, how does the AC50 [1] read?
A: 0.158 µM [rising, full curve, poor fit]

Q: Which AC50 [1] does the source give for `CCOc1ccc(-c2n[nH]c(C)c2-c2ccccc2OC)c(O)c1` here?
A: 15.8 µM [falling, partial curve]

Q: For `CCCCOC(=O)Cn1nnc2sc(-c3ccccc3)cc2c1=O`, which AC50 [1] is on record?
A: 15.8 µM [falling, single point]

Q: With `O=C(CSc1ncc(-c2ccccc2)[nH]1)Nc1ccc(F)cc1F` as the compound, how does the AC50 [1] read?
A: 12.6 µM [falling, partial curve]

Q: Which AC50 [1] does the source give for `CCSc1nc2c(c(=O)n(C)c(=O)n2C)n1Cc1ccc(Cl)cc1` here?
A: 25.1 µM [falling, partial curve]

Q: Which AC50 [1] does the source give for `CCc1ccccc1N1C(=O)N(CC(=O)c2ccc(Cl)cc2)c2ccccc2S1(=O)=O` here?
A: 31.6 µM [falling, single point]

Q: Which AC50 [1] does the source give for `CCOC(=O)c1ccc(NCn2c(=O)oc3ccccc32)cc1` here?
A: 2.51 µM [falling, full curve]

Q: For `CCOc1ccc(C2=C(C(=O)CC)Sc3nncn3N2C(=O)CC)cc1`, which AC50 [2] is on record?
A: 25.1 µM [rising, partial curve]

Q: What about the AC50 [3] of the same compound?
A: 39.8 µM [falling, single point]

Q: With `O=C(Nc1ccc(Cl)cc1)c1cc(S(=O)(=O)N2CCCc3ccccc32)ccc1F` as the compound, how does the AC50 [1] read?
A: 10 µM [falling, partial curve]

Q: Which AC50 [1] does the source give for `CCOC(=O)c1noc2ncn(Cc3cccc(C#N)c3)c(=O)c12` here?
A: 0.631 µM [falling, full curve, poor fit]

Q: Which AC50 [1] does the source give for `O=C(CCCn1c(=O)[nH]c2ccsc2c1=O)N1CCN(c2cccc(C(F)(F)F)c2)CC1` here?
A: 15.8 µM [falling, partial curve]

Q: With `CCOC(=O)c1ccccc1NC(=O)c1c(O)c2ccccc2n(CC)c1=O` as the compound, how does the AC50 [1] read?
A: 0.0631 µM [falling, full curve]

Q: With `CCc1nnc(NC(=O)CSc2ncc(-c3ccccc3)n2C)s1` as the compound, how does the AC50 [1] read?
A: 31.6 µM [falling, partial curve]

Q: Which AC50 [1] does the source give for `CCNc1nc(NC(C)CC)nc(Oc2ccc(OCC)nn2)n1` (centres undefined) here?
A: 10 µM [rising, partial curve]

Q: With `CC(C)C[C@H](N)c1nnc(S(=O)(=O)Cc2cccc(F)c2)o1` as the compound, how does the AC50 [1] read?
A: 12.6 µM [falling, partial curve]

Q: For `Cc1ccc(C)c(NC(=O)c2nnn(Cc3ccccc3C)c2N)c1`, which AC50 [1] is on record?
A: 15.8 µM [falling, partial curve]

Q: With `COc1ccc(NCc2cc3cc4c(cc3n(CC(=O)Nc3ccccc3)c2=O)OCO4)cc1` as the compound, how does the AC50 [1] read?
A: 10 µM [falling, partial curve]

Q: With `CCOC(=O)Cc1ccc(NC(=O)N(C(C)C)C2CCN(C(C)=O)CC2)cc1` as the compound, how does the AC50 [1] read?
A: 15.8 µM [falling, partial curve]

Q: For `CCOc1ccc(CNC(=O)Cn2cc3c(n2)-c2c(oc(C(=O)N4CCCC4)c2C)CC3)cc1`, which AC50 [1] is on record?
A: 12.6 µM [falling, partial curve]

Q: Which AC50 [1] does the source give for `CCCC1=Nc2cc(C(=O)NCC(C)c3ccccc3)ccc2Sc2ccccc21` (centres undefined) here?
A: 10 µM [falling, partial curve, poor fit]

Q: With `Cc1ccc(C2c3c(-c4ccccc4O)n[nH]c3C(=O)N2CCc2ccccc2)cc1` (centres undefined) as the compound, how does the AC50 [1] read?
A: 7.94 µM [falling, full curve]

Q: For `CCOC(=O)C(C(=O)OCC)c1cc(Br)c2noc3c2c1C(=O)c1ccccc1-3`, which AC50 [2] is on record?
A: 1.58 µM [rising, single point]

Q: What about the AC50 [3] of the same compound?
A: 3.16 µM [falling, full curve, poor fit]

Q: For `CCCNC(=O)c1c(NC(=O)c2ccccc2F)sc2c1CCCCC2`, which AC50 [1] is on record?
A: 12.6 µM [falling, partial curve]

Q: Which AC50 [1] does the source give for `Cc1ccc(-c2nc(C(=O)Nc3cccc(C#N)c3)c3n2CCCCC3)cc1` here?
A: 0.02 µM [falling, full curve]

Q: With `Cn1c(CN2CCOCC2)nc2cc(NC(=O)c3ccc(F)cc3)ccc21` as the compound, how does the AC50 [1] read?
A: 12.6 µM [falling, partial curve]

Q: Which AC50 [1] does the source give for `O=C1c2ccccc2C(=O)C1(c1ccccc1)N1CCN(c2cccc(C(F)(F)F)c2)CC1` here?
A: 10 µM [falling, partial curve]

Q: With `CCOc1ccccc1NC(=O)CCc1nc(-c2cccc(C)c2)no1` as the compound, how does the AC50 [1] read?
A: 25.1 µM [falling, partial curve]

Q: For `COc1ccc(-c2nc(SCC(=O)Nc3ccc4c(c3)OCO4)c(-c3ccc(F)cc3)[nH]2)cc1OC`, which AC50 [1] is on record?
A: 39.8 µM [falling, single point]

Q: Which AC50 [1] does the source give for `COc1ccc(Cl)cc1NC(=O)c1cc2ccccn2n1` here?
A: 0.126 µM [rising, full curve, poor fit]

Q: Which AC50 [1] does the source give for `COc1cccc(-n2c(=O)c3sccc3n(Cc3cc(=O)n4cc(Cl)ccc4n3)c2=O)c1` here?
A: 0.501 µM [rising, full curve]

Q: For `CCN(CC(=O)Nc1c(C(=O)OC)[nH]c2ccccc12)c1ccc2c(c1)OCO2`, which AC50 [1] is on record?
A: 15.8 µM [falling, partial curve]

Q: With `COc1ccc(N2CCN(C(=O)c3c(C)oc4nc(C)nc(N5CCCC5)c34)CC2)cc1` as the compound, how does the AC50 [1] read?
A: 39.8 µM [falling, single point]

Q: With `Nc1ccc(C2CCCc3nonc32)c2nonc12` (centres undefined) as the compound, how does the AC50 [1] read?
A: 2.51 µM [falling, full curve]

Q: Which AC50 [1] does the source give for `COc1ccc(-c2nc(C)c(CCNC(=O)c3cccs3)s2)cc1` here?
A: 39.8 µM [falling, single point]
